PubChem BioAssay AID1224826 | NIAID | 2016
Test: 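Regulators of Tlr4 signalling leading to Tnf-alpha expression in macrophages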 (primary screen). System: RAW264.7 G9 macrophages from mouse bearing reporters for p65 (GFP) and the Tnf promoter (mCherry). Knock-down reagent: siRNA pool against mouse genes, 100 nM. Duration: 16 h of LPS stimulation, after 2 days of siRNA transfection. Conditions: bacterial lipopolysaccharide (Salmonella minnesota R595), 10 ng/ml. Measurement: 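Nuclear mCherry signal of the Tnf promoter reporter measured by imaging after background removal, scaled to each plate median and turned into robust z-scores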. Reading the numbers: Tnf reporter robust z-score: higher = stronger Tnf promoter reporter signal after LPS. Active means: 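a well counts as active at a score of -1.3 or below (Tlr4 knock-down control median) or above 3 (raised signal); controls and wells holding fewer than 50 cells are excluded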. Calls: active = Tnf reporter clearly lowered or raised; inactive = no clear change in Tnf reporter.
The whole screen tested about 17,000 reagents; below is a random part of them. About 1,110 of them (6.6%) were called active. 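Active means lowered or raised reporter signal; replicate intensities are raw and not normalised per plate.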 Unmarked entries are inactive. Not all columns of the deposit are shown.

Rchy1 | Tnf reporter robust z-score: 1.69; fewer than 50 cells in well: enough cells in well
Srd5a2 | Tnf reporter robust z-score: -0.17; fewer than 50 cells in well: enough cells in well
Fbxw19 | Tnf reporter robust z-score: 0.59; fewer than 50 cells in well: enough cells in well
Tnfrsf9 | Tnf reporter robust z-score: -0.97; fewer than 50 cells in well: enough cells in well
Ear10 | Tnf reporter robust z-score: -0.57; fewer than 50 cells in well: enough cells in well
Pcdhga3 | Tnf reporter robust z-score: 0.44; fewer than 50 cells in well: enough cells in well
Nagpa | Tnf reporter robust z-score: 1.23; fewer than 50 cells in well: enough cells in well
Trnt1 | Tnf reporter robust z-score: -1.24; fewer than 50 cells in well: enough cells in well
Pcyt1b | fewer than 50 cells in well: fewer than 50 cells per well; well left out of calls
Acbd6 | Tnf reporter robust z-score: 1.63; fewer than 50 cells in well: enough cells in well
Ube3a | Tnf reporter robust z-score: 0.85; fewer than 50 cells in well: enough cells in well
Cox6c | Tnf reporter robust z-score: -0.56; fewer than 50 cells in well: enough cells in well
Rbp2 | Tnf reporter robust z-score: 1.09; fewer than 50 cells in well: enough cells in well
Txndc11 | Tnf reporter robust z-score: 4.15 (active); fewer than 50 cells in well: enough cells in well
Mettl21a | fewer than 50 cells in well: fewer than 50 cells per well; well left out of calls
Il10 | Tnf reporter robust z-score: 0.36; fewer than 50 cells in well: enough cells in well
Pcdhgc5 | Tnf reporter robust z-score: -1.67 (active); fewer than 50 cells in well: enough cells in well
Atosa | Tnf reporter robust z-score: -0.83; fewer than 50 cells in well: enough cells in well
Cbll1 | Tnf reporter robust z-score: 0.47; fewer than 50 cells in well: enough cells in well
Or8u9 | Tnf reporter robust z-score: -0.03; fewer than 50 cells in well: enough cells in well
Celsr2 | Tnf reporter robust z-score: -0.61; fewer than 50 cells in well: enough cells in well

Entries listed above marked active:
Txndc11 | Tnf reporter robust z-score: 4.15 (active); fewer than 50 cells in well: enough cells in well
Pcdhgc5 | Tnf reporter robust z-score: -1.67 (active); fewer than 50 cells in well: enough cells in well
